Source: PMC12703001
No constants are given. Whether binding was seen depends on the method and setting. Binding seen in cells or lysates may run through a third protein. A yes stands for co-enrichment or nearness to the bait. Other partners may have been found.

Protein sequences, listed by entry. Tags and fused reporters are not part of them.
UniProt Q9Y3Z3: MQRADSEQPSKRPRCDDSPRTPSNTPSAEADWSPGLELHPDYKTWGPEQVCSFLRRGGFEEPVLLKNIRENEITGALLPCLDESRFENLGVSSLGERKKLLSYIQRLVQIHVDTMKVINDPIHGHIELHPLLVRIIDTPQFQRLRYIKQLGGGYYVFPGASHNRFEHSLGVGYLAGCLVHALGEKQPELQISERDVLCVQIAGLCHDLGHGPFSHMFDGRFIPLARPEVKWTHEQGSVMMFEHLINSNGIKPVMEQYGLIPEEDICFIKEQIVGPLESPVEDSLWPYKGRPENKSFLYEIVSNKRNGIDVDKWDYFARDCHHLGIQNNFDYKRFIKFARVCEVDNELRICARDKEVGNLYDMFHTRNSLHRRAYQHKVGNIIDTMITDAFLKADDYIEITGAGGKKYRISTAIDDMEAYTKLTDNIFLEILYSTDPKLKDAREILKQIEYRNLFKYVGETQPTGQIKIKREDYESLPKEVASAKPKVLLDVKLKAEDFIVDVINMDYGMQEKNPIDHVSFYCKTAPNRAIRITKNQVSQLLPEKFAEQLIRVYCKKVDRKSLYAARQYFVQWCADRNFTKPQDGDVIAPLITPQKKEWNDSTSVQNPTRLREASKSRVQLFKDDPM
UniProt Q16531: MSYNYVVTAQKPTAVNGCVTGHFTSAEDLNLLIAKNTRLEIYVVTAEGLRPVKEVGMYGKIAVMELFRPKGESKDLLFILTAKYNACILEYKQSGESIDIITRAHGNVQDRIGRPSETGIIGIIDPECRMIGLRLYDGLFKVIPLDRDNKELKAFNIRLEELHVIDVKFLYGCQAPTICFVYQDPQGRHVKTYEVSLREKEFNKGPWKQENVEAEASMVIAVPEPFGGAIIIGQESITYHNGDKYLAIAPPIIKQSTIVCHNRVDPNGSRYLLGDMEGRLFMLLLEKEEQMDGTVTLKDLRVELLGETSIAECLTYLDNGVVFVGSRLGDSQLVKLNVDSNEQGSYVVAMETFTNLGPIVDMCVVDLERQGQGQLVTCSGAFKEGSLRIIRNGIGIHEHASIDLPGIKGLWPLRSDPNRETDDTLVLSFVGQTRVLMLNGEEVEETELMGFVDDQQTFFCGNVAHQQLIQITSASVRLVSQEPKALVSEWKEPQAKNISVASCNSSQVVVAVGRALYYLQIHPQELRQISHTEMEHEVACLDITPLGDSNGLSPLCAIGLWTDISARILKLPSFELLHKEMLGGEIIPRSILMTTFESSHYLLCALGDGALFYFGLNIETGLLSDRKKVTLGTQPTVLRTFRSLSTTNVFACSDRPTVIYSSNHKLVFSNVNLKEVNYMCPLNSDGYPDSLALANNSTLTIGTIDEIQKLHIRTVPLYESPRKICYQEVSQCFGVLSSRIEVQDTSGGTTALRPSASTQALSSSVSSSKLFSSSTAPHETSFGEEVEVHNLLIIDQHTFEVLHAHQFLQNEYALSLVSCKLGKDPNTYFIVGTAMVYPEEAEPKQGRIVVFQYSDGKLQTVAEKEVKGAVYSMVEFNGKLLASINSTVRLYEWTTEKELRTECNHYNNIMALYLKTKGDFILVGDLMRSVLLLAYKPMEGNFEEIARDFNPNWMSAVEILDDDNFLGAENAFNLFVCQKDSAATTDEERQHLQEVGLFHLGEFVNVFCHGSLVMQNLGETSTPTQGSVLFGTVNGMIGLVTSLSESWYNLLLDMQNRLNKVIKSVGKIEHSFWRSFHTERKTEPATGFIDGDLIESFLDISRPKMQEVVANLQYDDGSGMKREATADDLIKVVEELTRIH

Target: SAMHD1-HA (HA-tagged wild-type SAMHD1) (human) (UniProt Q9Y3Z3)
Test: affinity purification with mass spectrometry; HEK293T transfected with SAMHD1-HA vector or empty control vector; lysates 36 h post-transfection; HA-tagged SAMHD1 immunoprecipitated with HA-immobilized agarose beads; eluted with 0.2 M glycine; MS

binding: binds
Substance: DDB1 (from UniProt Q16531 1-1140)
